Experimental findings from patent US20090068207A1, “Compositions Containing Beta 2-Glycoprotein I-Derived Peptides for the Prevention and/or Treatment of Vascular Disease” (Vascular Biogenics Ltd., priority 2005, published 2009) are described below.

Common to all, as to type: in vivo
A short description of series [1]: Body weight, plasma cholesterol and triglyceride after oral administration (LDL-RD mice). Particulars: mean ± S.E.
The nature of series [2]: Body weight, plasma cholesterol and triglyceride after intraperitoneal immunization (LDL-RD mice). Particulars: head 100 μg.
The nature of series [3]: Body weight, plasma cholesterol and triglyceride after nasal administration (LDL-RD mice). Particulars: END, intranasal 10 μg/mouse every other day for 5 days, then Western diet, median.
Series [4] can be described thus: Body weight, plasma cholesterol and triglyceride after nasal administration (ApoE-KO mice). The note with it: mean ± S.E.
Series [5] can be described thus: Body weight, plasma cholesterol and triglyceride after oral administration (ApoE-KO mice). Particulars: ApoE-KO mice.
[6] abbreviates: End, intraperitoneal with incomplete Freund's adjuvant, mean ± S.E.
Where [7] appears, read: End, intraperitoneal with incomplete Freund's adjuvant, median.
Where [8] appears, read: Time 0, intraperitoneal immunization groups, mean ± S.E.
Where [9] appears, read: second weight line (End), intraperitoneal with incomplete Freund's adjuvant, mean ± S.E.
Setting [10] is: Time 0, nasal 10 μg/mouse groups.

As to SCKVPVKKATVVYQGERVKIQ [Peptide S-3], the “Cholesterol” value turned out to be 1172 ± 67 mg/dL in series [1] (End, oral 100 μg); 241 ± 9 mg/dL in series [1] (Time 0, oral 100 μg groups); 1385 ± 123 mg/dL in series [2] (setting [6]); 201 ± 12 mg/dL in series [2] (setting [8]). For the same substance, the “Triglyceride” value in series [1] (End, oral 100 μg) is reported as 282 ± 29 mg/dL; in series [1] (Time 0, oral 100 μg groups), 283 ± 31 mg/dL; in series [2] (setting [7]) it was 459 mg/dL; in series [2] (setting [8]) it was 78 ± 18 mg/dL. Also, the “Weight” value in series [1] (End, oral 100 μg) is 27.76 ± 0.7 g; in series [1] (Time 0, oral 100 μg groups) it was 19.6 ± 0.7 g; in series [2] (setting [8]), 19.9 ± 0.9 g; in series [2] (setting [9]), 29.2 ± 0.9 g.

With ECLPQHAMFGNDTITCTTHGN [Peptide S-2], the “Cholesterol” value came to 1148 ± 71 mg/dL in series [1] (End, oral 100 μg); 244 ± 14 mg/dL in series [1] (Time 0, oral 100 μg groups); 1289 ± 89 mg/dL in series [2] (setting [6]); 196 ± 9 mg/dL in series [2] (setting [8]). Further, the “Triglyceride” value in series [1] (End, oral 100 μg) worked out at 382 ± 54 mg/dL; in series [1] (Time 0, oral 100 μg groups), 260 ± 28 mg/dL; in series [2] (setting [7]), 576 mg/dL; in series [2] (setting [8]) it was 80 ± 8 mg/dL. The “Weight” value in series [1] (End, oral 100 μg) is listed as 26.8 ± 1.2 g; in series [1] (Time 0, oral 100 μg groups), 20.0 ± 0.7 g; in series [2] (setting [8]), 20.2 ± 1.2 g; in series [2] (setting [9]), 30.5 ± 0.7 g.

As to “HSP-65: recombinant mycobacterial heat shock protein HSP 65”, the “Triglyceride” value in series [3] is given as 288 mg/dL.

Take VCPFAGILENGAVRYTTFEY [Peptide S-1]: the “Cholesterol” value in series [1] (End, oral 100 μg) turned out to be 1104 ± 55 mg/dL; in series [1] (Time 0, oral 100 μg groups), 244 ± 12 mg/dL; in series [2] (setting [6]), 1380 ± 74 mg/dL; in series [2] (setting [8]) it was 192 ± 11 mg/dL. Further, the “Triglyceride” value came to 274 ± 33 mg/dL in series [1] (End, oral 100 μg); 238 ± 36 mg/dL in series [1] (Time 0, oral 100 μg groups); 417 mg/dL in series [2] (setting [7]); 67 ± 8 mg/dL in series [2] (setting [8]). The “Weight” value is 28.0 ± 0.7 g in series [1] (End, oral 100 μg); 20.6 ± 0.7 g in series [1] (Time 0, oral 100 μg groups); 20.7 ± 1.2 g in series [2] (setting [8]); 32.5 ± 0.8 g in series [2] (setting [9]).

Take MLHGDKVSFFCKNKEKKCSYT [Peptide S-4]: the “Cholesterol” value was 323 ± 25 mg/dL in series [4] (End, nasal 10 μg/mouse); 356 ± 12 mg/dL in series [4] (setting [10]); 1181 ± 63 mg/dL in series [1] (End, oral 100 μg); 243 ± 11 mg/dL in series [1] (Time 0, oral 100 μg groups); 1267 ± 59 mg/dL in series [2] (setting [6]); 194 ± 10 mg/dL in series [2] (setting [8]). The “Cholesterol” value was 414 ± 20 mg/dL in series [5] (End, oral 50 μg, 5 doses) and 384 ± 18 mg/dL in series [5] (Time 0, oral 50 μg groups). Besides, the “Triglyceride” value in series [4] (End, nasal 10 μg/mouse) amounted to 117 ± 7 mg/dL; in series [4] (setting [10]), 66 ± 5 mg/dL; in series [1] (End, oral 100 μg), 345 ± 51 mg/dL; in series [1] (Time 0, oral 100 μg groups) it was 243 ± 31 mg/dL; in series [2] (setting [7]), 321 mg/dL; in series [2] (setting [8]) it was 68 ± 6 mg/dL. Further, the “Triglyceride” value in series [5] (End, oral 50 μg, 5 doses) was 107 ± 4 mg/dL; in series [5] (Time 0, oral 50 μg groups), 85 ± 5 mg/dL. Further, the “Weight” value is 25.7 ± 0.5 g in series [4] (End, nasal 10 μg/mouse); 20.5 ± 0.4 g in series [4] (setting [10]); 26.6 ± 0.7 g in series [1] (End, oral 100 μg); 20.0 ± 0.7 g in series [1] (Time 0, oral 100 μg groups); 20.0 ± 1.0 g in series [2] (setting [8]); 28.8 ± 1.3 g in series [2] (setting [9]). The “Weight” value was 25.4 ± 0.9 g in series [5] (End, oral 50 μg, 5 doses) and 24.8 ± 0.9 g in series [5] (Time 0, oral 50 μg groups).
